Reference: doi:10.1101/2023.04.03.535356
These are yes or no findings as the source states them, for the method shown. Binding seen in cells or lysates may run through a third protein. A result given as binding can be weak or reduced; the word gives no strength.

Amino acid sequences for entries named in this document (tags omitted). A change or cut given only in a name is not applied to a line headed by its entry.
UniProt Q8VCW4: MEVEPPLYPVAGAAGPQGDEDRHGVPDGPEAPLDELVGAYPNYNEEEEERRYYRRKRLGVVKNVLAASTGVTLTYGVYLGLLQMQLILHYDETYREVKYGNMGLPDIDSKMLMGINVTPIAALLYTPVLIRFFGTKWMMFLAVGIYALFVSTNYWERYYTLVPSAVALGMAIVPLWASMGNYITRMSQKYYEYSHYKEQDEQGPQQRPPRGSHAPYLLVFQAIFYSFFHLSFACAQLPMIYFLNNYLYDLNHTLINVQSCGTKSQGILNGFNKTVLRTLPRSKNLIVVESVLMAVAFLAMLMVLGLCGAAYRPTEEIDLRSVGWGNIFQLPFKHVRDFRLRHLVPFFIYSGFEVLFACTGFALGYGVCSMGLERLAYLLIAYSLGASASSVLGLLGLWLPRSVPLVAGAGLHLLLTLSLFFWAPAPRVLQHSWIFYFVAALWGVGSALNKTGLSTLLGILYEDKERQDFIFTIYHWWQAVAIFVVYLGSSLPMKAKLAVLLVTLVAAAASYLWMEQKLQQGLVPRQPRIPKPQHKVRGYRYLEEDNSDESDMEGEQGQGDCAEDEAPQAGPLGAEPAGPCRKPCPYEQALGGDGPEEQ

Molecular target: Flag-tagged Unc93b1 allele that includes the D34A mutation (UniProt Q8VCW4)
Experiment: co-IP

binding: binds
B1: endogenous Arl8b (protein, UniProt Q9CQW2 1-186)
chain: MLALISRLLDWFRSLFWKEEMELTLVGLQYSGKTTFVNVIASGQFSEDMIPTVGFNMRKVTKGNVTIKIWDIGGQPRFRSMWERYCRGVNAIVYMIDAADREKIEASRNELHNLLDKPQLQGIPVLVLGNKRDLPNALDEKQLIEKMNLSAIQDREICCYSISCKEKDNIDITLQWLIQHSKSRRS
